These are yes or no findings as the source states them, for the method shown. Binding seen in cells or lysates may run through a third protein. Binding calls can cover weak binding; strength is not graded here.
Biological target: GST-Rhotekin-Rho-binding domain (UniProt Q8C6B2)
Test: pull-down; 0.1 mg GST-tagged probe (or GST as control) immobilized on glutathione agarose, incubated with lysates of 10 million RBL-2H3 cells (unstimulated, antigen-stimulated 0-20 min, GEF-H1 knockdown, or pretreated with taxol, nocodazole or the Syk inhibitor GS-9973); buffer A: 20 mM HEPES pH 7.5, 1% Triton X-100, 10 mM MgCl2, 150 mM NaCl, 5% glycerol; immunoblot; only the target purified

By UniProt entry, the sequences of proteins in these tests, tags left out. Where a name states a change or a piece, a line headed by the entry shows the natural chain unless it says otherwise.
UniProt Q8C6B2: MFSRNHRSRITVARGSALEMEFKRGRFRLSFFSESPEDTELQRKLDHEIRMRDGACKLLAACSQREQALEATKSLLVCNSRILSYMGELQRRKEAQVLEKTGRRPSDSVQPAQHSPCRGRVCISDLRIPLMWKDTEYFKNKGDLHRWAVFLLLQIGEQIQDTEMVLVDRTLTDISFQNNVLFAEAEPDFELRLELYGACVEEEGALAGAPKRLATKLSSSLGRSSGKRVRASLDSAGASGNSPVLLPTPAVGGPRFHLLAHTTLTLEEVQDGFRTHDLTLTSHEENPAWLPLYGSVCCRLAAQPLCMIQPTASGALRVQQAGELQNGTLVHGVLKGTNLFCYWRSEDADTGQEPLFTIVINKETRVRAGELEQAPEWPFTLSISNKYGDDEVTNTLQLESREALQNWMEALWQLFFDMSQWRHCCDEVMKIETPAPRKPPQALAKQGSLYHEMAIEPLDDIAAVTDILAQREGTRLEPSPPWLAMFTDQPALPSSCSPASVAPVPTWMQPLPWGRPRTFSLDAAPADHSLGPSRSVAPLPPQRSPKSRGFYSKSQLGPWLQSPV
UniProt P61589: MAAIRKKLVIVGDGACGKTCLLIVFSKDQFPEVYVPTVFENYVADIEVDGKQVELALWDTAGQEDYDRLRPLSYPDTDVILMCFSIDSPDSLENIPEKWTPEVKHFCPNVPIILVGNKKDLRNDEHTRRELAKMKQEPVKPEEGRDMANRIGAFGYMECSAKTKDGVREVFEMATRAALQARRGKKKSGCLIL

“RhoA (active, RhoA-GTP), endogenous in RBL-2H3 cells (from UniProt P61589 1-193)” was tested, and the binding was “binds”.

From paper PMC9954420
